According to the supplement of paper PMC12819154, “High-throughput peptide-centric local stability assay extends protein–ligand identification to membrane proteins, tissues and bacteria” (Nature Structural & Molecular Biology, 2025):
Some of the results follow. Most values lie at the level of the controls, where differences are scatter.

Sequences of proteins named here, by UniProt entry; tags and fusion partners are left off. A change or cut given only in a name is not applied to a line headed by its entry.
UniProt O09000: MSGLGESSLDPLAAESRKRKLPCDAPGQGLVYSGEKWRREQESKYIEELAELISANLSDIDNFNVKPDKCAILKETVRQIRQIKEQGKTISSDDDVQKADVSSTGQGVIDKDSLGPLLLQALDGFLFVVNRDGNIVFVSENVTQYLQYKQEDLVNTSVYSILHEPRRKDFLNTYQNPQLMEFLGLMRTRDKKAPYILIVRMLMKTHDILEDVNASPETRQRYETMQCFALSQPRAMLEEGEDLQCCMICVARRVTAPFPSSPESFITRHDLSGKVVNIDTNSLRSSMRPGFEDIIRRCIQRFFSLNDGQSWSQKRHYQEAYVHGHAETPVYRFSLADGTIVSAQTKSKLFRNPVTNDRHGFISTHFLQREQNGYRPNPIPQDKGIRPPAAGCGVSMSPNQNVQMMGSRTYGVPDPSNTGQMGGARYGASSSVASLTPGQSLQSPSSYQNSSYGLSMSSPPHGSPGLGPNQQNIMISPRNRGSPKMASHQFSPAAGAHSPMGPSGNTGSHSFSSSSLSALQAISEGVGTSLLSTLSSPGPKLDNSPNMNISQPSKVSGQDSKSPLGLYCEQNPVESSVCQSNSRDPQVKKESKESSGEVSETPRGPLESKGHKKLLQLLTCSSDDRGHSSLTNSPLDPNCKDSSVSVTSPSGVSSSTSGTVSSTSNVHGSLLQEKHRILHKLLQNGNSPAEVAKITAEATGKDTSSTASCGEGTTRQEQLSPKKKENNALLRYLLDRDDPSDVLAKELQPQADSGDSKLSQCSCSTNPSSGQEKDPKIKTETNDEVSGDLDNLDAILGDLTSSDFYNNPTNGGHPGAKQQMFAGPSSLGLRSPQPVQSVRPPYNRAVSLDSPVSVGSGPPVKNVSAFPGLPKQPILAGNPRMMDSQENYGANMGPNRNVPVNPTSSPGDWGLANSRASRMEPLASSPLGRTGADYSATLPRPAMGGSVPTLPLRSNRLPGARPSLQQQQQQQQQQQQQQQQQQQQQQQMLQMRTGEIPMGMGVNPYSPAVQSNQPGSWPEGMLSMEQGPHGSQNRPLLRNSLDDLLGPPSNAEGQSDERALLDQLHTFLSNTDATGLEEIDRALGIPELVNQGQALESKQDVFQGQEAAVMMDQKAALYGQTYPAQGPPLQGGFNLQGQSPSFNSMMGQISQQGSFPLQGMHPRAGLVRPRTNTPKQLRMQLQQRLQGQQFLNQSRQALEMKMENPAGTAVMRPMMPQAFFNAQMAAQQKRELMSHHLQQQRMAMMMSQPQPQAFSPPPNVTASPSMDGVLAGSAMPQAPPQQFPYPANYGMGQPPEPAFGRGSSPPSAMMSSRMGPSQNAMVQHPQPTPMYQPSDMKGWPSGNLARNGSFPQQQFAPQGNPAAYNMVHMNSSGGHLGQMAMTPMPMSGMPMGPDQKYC
UniProt D3YZG8: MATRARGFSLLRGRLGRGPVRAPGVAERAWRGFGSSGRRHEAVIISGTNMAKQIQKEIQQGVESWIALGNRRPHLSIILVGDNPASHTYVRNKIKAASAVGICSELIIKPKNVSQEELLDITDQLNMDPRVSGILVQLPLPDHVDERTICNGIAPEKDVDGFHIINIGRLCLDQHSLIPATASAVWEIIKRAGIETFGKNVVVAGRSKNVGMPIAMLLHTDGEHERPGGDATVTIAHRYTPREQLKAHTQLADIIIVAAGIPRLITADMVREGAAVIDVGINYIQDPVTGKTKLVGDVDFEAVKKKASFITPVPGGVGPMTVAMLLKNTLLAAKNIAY
UniProt D3YXK1: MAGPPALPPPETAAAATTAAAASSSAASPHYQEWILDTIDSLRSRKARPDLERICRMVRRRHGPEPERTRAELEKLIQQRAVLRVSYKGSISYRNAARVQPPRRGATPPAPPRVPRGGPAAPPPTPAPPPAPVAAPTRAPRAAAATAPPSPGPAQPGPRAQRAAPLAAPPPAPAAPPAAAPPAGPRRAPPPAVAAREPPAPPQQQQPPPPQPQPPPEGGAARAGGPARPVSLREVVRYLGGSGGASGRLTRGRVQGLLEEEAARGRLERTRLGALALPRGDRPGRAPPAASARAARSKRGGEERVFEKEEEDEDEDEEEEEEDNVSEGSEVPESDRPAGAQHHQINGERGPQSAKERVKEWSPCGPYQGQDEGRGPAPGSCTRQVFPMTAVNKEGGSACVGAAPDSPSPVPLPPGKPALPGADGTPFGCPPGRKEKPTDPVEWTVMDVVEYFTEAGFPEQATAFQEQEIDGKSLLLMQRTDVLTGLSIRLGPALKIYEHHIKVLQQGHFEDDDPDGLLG
UniProt D2EAC2: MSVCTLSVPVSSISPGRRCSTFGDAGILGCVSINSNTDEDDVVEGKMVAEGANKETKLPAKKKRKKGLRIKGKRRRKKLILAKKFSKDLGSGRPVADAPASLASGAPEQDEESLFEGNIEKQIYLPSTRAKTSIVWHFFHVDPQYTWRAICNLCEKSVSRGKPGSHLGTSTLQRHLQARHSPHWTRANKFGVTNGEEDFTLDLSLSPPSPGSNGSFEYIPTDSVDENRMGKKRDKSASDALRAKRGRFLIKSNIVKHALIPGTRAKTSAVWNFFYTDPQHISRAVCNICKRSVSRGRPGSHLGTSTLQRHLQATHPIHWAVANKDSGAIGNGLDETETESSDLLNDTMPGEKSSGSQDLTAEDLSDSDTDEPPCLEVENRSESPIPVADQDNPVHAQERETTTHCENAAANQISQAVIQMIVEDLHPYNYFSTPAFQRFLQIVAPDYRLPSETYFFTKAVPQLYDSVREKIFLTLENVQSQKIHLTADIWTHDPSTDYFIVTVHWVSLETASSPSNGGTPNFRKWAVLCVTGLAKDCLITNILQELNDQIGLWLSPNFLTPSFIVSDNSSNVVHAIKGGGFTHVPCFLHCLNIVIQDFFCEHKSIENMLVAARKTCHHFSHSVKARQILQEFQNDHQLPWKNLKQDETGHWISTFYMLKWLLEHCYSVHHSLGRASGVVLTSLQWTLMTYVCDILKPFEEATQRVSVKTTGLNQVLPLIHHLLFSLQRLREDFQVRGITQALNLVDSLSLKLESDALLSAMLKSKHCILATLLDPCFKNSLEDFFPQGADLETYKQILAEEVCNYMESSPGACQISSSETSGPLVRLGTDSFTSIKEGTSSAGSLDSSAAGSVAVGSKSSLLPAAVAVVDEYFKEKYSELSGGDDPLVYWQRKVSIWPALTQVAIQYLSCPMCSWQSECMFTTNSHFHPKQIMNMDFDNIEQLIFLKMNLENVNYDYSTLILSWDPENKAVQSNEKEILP
UniProt O35379: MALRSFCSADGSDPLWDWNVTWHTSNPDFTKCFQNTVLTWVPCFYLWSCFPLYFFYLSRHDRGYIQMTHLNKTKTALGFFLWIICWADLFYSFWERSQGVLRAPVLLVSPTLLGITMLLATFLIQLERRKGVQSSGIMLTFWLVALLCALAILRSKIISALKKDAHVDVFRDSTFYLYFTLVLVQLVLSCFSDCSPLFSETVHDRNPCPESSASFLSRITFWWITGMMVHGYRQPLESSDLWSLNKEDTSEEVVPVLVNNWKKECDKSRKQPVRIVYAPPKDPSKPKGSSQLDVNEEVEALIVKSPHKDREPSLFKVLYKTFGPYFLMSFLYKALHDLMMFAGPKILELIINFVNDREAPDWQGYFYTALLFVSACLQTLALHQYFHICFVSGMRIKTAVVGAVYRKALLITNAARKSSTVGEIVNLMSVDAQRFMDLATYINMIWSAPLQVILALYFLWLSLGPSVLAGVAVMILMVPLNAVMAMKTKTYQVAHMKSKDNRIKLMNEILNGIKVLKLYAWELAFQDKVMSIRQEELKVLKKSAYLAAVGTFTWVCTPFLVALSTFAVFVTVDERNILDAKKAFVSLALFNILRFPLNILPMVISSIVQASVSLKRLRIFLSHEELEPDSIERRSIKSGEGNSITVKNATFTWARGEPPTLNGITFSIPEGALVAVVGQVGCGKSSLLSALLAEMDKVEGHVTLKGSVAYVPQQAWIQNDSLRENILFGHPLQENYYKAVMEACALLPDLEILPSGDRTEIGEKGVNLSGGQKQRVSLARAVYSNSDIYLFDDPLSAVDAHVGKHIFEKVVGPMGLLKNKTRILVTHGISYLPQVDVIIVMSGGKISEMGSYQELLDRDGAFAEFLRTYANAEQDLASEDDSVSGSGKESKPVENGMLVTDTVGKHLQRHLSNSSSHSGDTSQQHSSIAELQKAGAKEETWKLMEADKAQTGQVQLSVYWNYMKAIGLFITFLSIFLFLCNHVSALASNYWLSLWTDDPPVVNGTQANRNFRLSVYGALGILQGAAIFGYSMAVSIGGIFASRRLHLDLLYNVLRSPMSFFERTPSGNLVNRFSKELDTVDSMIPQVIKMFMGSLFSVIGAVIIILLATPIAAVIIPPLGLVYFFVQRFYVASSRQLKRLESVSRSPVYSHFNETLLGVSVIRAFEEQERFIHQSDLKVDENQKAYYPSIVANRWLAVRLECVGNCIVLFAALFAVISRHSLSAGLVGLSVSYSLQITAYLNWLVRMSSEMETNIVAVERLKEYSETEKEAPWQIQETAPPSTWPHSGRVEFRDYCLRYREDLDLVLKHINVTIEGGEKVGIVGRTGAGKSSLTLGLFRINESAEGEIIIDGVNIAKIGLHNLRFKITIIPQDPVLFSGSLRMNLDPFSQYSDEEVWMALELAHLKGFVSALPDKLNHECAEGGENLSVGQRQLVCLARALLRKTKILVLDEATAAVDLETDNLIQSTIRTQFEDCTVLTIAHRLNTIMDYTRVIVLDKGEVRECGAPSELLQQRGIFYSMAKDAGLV
UniProt O09030: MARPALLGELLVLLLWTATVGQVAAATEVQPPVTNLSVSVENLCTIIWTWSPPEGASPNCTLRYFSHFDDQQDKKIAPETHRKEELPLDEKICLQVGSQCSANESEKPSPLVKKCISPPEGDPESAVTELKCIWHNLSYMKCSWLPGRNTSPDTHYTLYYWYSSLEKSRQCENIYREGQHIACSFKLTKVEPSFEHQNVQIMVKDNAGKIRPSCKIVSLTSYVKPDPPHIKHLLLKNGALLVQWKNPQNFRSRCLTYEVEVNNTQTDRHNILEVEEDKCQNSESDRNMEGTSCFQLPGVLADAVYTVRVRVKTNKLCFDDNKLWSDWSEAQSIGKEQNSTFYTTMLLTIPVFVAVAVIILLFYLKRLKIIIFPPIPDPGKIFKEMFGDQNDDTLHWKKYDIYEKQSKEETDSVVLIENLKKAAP
UniProt E9Q6B2: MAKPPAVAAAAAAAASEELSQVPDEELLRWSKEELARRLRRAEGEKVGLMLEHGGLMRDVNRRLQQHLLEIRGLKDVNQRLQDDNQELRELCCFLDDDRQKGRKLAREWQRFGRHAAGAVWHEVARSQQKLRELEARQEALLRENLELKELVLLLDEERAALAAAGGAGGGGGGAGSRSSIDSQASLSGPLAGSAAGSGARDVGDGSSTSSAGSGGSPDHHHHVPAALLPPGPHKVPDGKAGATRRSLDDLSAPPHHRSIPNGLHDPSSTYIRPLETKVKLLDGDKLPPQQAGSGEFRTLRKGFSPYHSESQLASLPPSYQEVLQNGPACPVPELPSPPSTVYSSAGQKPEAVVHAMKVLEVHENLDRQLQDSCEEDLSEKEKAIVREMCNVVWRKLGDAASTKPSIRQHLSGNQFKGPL
UniProt O09174: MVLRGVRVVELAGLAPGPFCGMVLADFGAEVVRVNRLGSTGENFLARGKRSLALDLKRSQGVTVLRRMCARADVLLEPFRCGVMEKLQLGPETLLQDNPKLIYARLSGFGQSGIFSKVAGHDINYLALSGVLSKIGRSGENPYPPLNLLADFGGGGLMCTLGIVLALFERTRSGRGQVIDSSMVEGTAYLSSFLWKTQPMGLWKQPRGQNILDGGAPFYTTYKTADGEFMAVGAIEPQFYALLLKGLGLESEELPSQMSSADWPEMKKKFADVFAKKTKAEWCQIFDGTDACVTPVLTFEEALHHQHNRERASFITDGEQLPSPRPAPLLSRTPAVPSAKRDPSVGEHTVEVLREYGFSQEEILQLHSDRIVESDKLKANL

compound: CN[C@@H]1C[C@H]2O[C@@](C)([C@@H]1OC)n1c3ccccc3c3c4c(c5c6ccccc6n2c5c31)C(=O)NC4 [staurosporine]; assay: log2 fold change of tryptic peptide abundance, ligand vs vehicle (limited proteolysis) (log2 ratio); higher = more trypsin-susceptible (destabilized); conditions: ligand concentration: 20 uM; sample: mouse liver crude lysate; replicate design: treated separately

**Q.** Which log2 fold change does the source give for “UniProt O35345 (peptide sequence: IQAVIDSGVCRR, peptide start residue: 287)” here?
**A.** -0.427

**Q.** Which log2 fold change does the source give for “UniProt O35280 (peptide sequence: ILVETPSAR, peptide start residue: 245)” here?
**A.** -0.0131

**Q.** “UniProt O09000 (peptide sequence: KLPCDAPGQGLVYSGEK, peptide start residue: 20)” was tested. Which log2 fold change did it give?
**A.** -0.269

**Q.** With “UniProt D3YZG8 (peptide sequence: AWRGFGSSGRR, peptide start residue: 29)” as the target, how does the log2 fold change read?
**A.** 0.12

**Q.** Which log2 fold change does the source give for “UniProt D3YXK1 (peptide sequence: IYEHHIK, peptide start residue: 496)” here?
**A.** -0.677

**Q.** With “UniProt O35459 (peptide sequence: KMMADEALDSGLVSR, peptide start residue: 230)” as the target, how does the log2 fold change read?
**A.** -0.523

**Q.** How did the log2 fold change turn out when “UniProt O08919 (peptide sequence: AFSYICR, peptide start residue: 126)” was run?
**A.** -0.112

**Q.** With “UniProt O08759 (peptide sequence: GFHMVTNESPLK, peptide start residue: 731)” as the target, how does the log2 fold change read?
**A.** 0.345

**Q.** With “UniProt D2EAC2 (peptide sequence: LGTDSFTSIK, peptide start residue: 827)” as the target, how does the log2 fold change read?
**A.** 0.398

**Q.** Which log2 fold change does the source give for “UniProt F6VAN0 (peptide sequence: LSVTKPVLQSATR, peptide start residue: 273)” here?
**A.** -0.19

**Q.** With “UniProt O08750 (peptide sequence: LNDLVLENK, peptide start residue: 96)” as the target, how does the log2 fold change read?
**A.** -0.33

**Q.** With “UniProt O35379 (peptide sequence: ESKPVENGMLVTDTVGK, peptide start residue: 889)” as the target, how does the log2 fold change read?
**A.** -0.172

**Q.** “UniProt O09030 (peptide sequence: QSKEETDSVVLIENLK, peptide start residue: 405)” was tested. Which log2 fold change did it give?
**A.** -0.239

**Q.** Which log2 fold change does the source give for “UniProt E9Q9R9 (peptide sequence: IKIPLTPR, peptide start residue: 1274)” here?
**A.** 0.0597

**Q.** “UniProt O35071 (peptide sequence: TYGKPEGPGDAWR, peptide start residue: 785)” was tested. Which log2 fold change did it give?
**A.** 0.241

**Q.** For “UniProt D3YWQ0 (peptide sequence: EANPEKFNSR, peptide start residue: 469)”, which log2 fold change is on record?
**A.** -0.0657

**Q.** “UniProt E9Q6B2 (peptide sequence: RLQQHLLEIR, peptide start residue: 63)” was tested. Which log2 fold change did it give?
**A.** 0.231

**Q.** How did the log2 fold change turn out when “UniProt O35465 (peptide sequence: VKCLNNLAASQLK, peptide start residue: 262)” was run?
**A.** -0.227

**Q.** For “UniProt E9PUN2 (peptide sequence: VVDEWLLDKGR, peptide start residue: 1274)”, which log2 fold change is on record?
**A.** -0.0611

**Q.** With “UniProt O08609 (peptide sequence: IMKVNYEQIVK, peptide start residue: 210)” as the target, how does the log2 fold change read?
**A.** -0.34

**Q.** “UniProt O09174 (peptide sequence: IVESDKLK, peptide start residue: 371)” was tested. Which log2 fold change did it give?
**A.** -0.0987

**Q.** Which log2 fold change does the source give for “UniProt B2RX88 (peptide sequence: FMAEHLNEEQHK, peptide start residue: 1176)” here?
**A.** 0.33

**Q.** How did the log2 fold change turn out when “UniProt E9Q3C1 (peptide sequence: GKHTMNGVPREPCI, peptide start residue: 683)” was run?
**A.** -0.331
